Results published in ChEMBL document CHEMBL4831506, “Discovery of novel trimethoxyphenylbenzo[d]oxazoles as dual tubulin/PDE4 inhibitors capable of inducing apoptosis at G2/M phase arrest in glioma and lung cancer cells” (Eur J Med Chem, 2021).

System: NCI-H460
Experiment: Antiproliferative activity against human NCI-H460 cells after 48 hrs by MTT assay
Type: functional, cell-based
Settings: NCI-H460, 48 h

COc1cc2c(c(OC)c1OC)-c1ccc(OC)c(=O)cc1[C@@H](NC(C)=O)CC2 [COLCHICINE]
IC50: 22 nM
